Measured values reported in patent US20250129170A1.
Changes are numbered by the printed parent chain. These are yes or no findings as the source states them, for the method shown. Some entries that bind do so weakly or less than the wild type. Values belong to the binder of their own block, whether it stands above or below them.

Sequences of proteins named here, by UniProt entry; tags and fusion partners are left off. Residues count along the entry.
UniProt P32927, residues 17-443: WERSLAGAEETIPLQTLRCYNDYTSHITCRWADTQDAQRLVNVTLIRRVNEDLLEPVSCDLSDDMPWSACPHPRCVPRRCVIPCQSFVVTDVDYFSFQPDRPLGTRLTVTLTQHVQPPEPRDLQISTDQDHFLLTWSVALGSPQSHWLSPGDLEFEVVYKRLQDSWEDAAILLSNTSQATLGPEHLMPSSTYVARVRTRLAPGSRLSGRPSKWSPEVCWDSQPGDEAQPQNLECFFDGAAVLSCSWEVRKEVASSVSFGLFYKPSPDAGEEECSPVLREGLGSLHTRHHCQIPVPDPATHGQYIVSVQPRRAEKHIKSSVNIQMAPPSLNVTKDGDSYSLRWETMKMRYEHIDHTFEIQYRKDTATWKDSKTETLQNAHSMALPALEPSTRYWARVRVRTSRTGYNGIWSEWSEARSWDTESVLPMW

Legend:
[1] = biological target: hCD131-Fc (IME021, inhouse) (human) (UniProt P32927); experiment: B-cell sorting with fluorescent hCD131-Fc; single-cell sequencing
[2] = biological target: hCD131-Fc (IME021, inhouse) (human) (UniProt P32927); experiment: B-cell sorting with labelled hCD131-Fc, then single-cell sequencing

- binding [1]: binds
B1: clonotype132 (Table 6, anti-CD131) (antibody, V domains shown)
VH: EVQLVESGGGLVQPGGSLRLSCAASGFTFSSYDMHWVRQATGKGLEWVSAIGTAGDTYYPGSVKGRFTISRENAKNSLYLQMNSLRAGDTAVYYCARWGTGGFDYWGQGTLVTVSS
VL: SYELTQPPSVSVSPGQTARITCSADALPKQYAYWYQQKPGQAPVLVIYKDSERPSGIPERFSGSSSGTTVTLTISGVQAEDEADYYCQSADSSGTWVFGGGTKLTVL

- binding [1]: binds
B2: clonotype115 (Table 6, anti-CD131) (antibody, V domains shown)
VH: EVQLVESGGGLVQPGGSLRLSCAASGFTFSSYDMHWVRQATGKGLEWVSAIGTAGDTYYPGSVKGRFTISRENAKNSLYLQMNSLRAGDTAVYYCARDRTLDYWGQGTLVTVSS
VL: SYELTQPPSVSVSPGQTARITCSGDALPKKYAYWYQQKSGQAPVLVIYEDSKRPSGIPERFSGSSSGTMATLTISGAQVEDEADYYCYSTDSSGNHWVFGGGTKLTVL

- binding [1]: binds
B3: clonotype123 (Table 6, anti-CD131) (antibody, V domains shown)
VH: EVQLVESGGGLVKPGGSLRLSCAASGFTFSDAWMYWDRQAPGKGLEWVGRIKSKTDGGTTDYAAPVKGRFTISRDDSKNTLYLQMNSLKTEDTAVYYCRADMDVWGKGTTVTVSS
VL: B2 VL with T90I, W97R

- binding [1]: binds
B7: clonotype162 (Table 6, anti-CD131) (antibody, V domains shown)
VH: EVQLVESGGGLVQPGRSLRLSCAASGFTFDDYAMHWVRQAPGKGLEWVSGISWNSGSIGYADSVKGRFTISRDNAKNSLYLQMNSLRAEDTALYYCAKDNWNYAFDIWGQGTMVTVSS
VL: QSALTQPASVSGSPGQSITISCTGTSSDVGGYNYVSWYQQHPGKAPKLMIYEVSNRPSGVSNRFSGSKSGNTASLTISGLQAEDEADYYCSSYTSSSTRVFGGGTKLTVL

- binding [1]: binds
B9: clonotype127 (Table 6, anti-CD131) (antibody, V domains shown)
VH: EVQLVESGGGLVQPGGSLKLSCAASGFTFSGSAMHWVRQASGKGLEWVGRIRSKANSYATAYAASVKGRFTISRDDSKNTAYLQMNSLKTEDTAVYYCTGPFDYWGQGTLVTVSS
VL: B7 VL with R99W

- binding [1]: binds
B10: clonotype161 (Table 6, anti-CD131) (antibody, V domains shown)
VH: EVQLVESGGDLVQPGRSLRLSCAASGFTFDDHAIHWVRQAPGKGLEWVSGVTWNSNIIGYADSVKGRFTISRDIAKNSLYLQMNSLRPEDTALYYCAKDNDWNGFDYWGQGTLVTVSS
VL: B7 VL with G59V, V60I, N62Y, S91N, S95T, S96N, S97T

- binding [1]: binds
B11: clonotype126 (Table 6, anti-CD131) (antibody, V domains shown)
VH: QVQLVQSGAEVKKPGASVKVSCKTSGYTFTSFGISWVRQAPGQGLEWMGWISAYNDNINYAQKLQDRVTMTTDTSTSTACMELRSLRSDDTAVYFCARGASFDFWGQGTLVTVSS
VL: B7 VL with N55D, S95R, R99C

- binding [1]: binds
B12: clonotype160 (Table 6, anti-CD131) (antibody, V domains shown)
VH: QVQLVQSGAEVKKPGASVQVSCKASGYTFTGYYIHWVRQAPGQGLEWMGWINPNSGGTNYAQKFQGRVIMTRDTSISIAYIELSRLRSDDTAVYYCARPYNWNSFDYWGQGTLVTVSS
VL: B7 VL with P14L, Q40H, L48I, E52D, G66A, A82T, S95T, R99W, K106N

- binding [1]: binds
B14: clonotype116 (Table 6, anti-CD131) (antibody, V domains shown)
VH: QVQLVQSGAEAKKPGASVKVSCMASGYTFTTYGISWVRQAPGQGLEWMGWISAYNGNTKYAQKLQGRVTMTTDTSTRTAYMELRSLRSDDTAVYYCARQIGDYWGQGTLVTVSS
VL: QSALTQPPSASGSPGQSVTISCTGTSSDVGGYNYVSWYQQHPGKAPKLMIYEVIKRPSGVPDRFSGSKSGNTASLTVSGLQAEDEADYYCSAYAGSNNVVFGGGTQLTVL

- binding [1]: binds
B17: clonotype164 (Table 6, anti-CD131) (antibody, V domains shown)
VH: EVQLVESGGGLVQPGGSLRLSCTASGFTFSSYWMHWVRQAPGKGLVWVSRVNSDGGNTIYADSVKGRFTISRDNAKNTLYLQMNSLRAEDTAIYYCARDLDWTLFDYWGQGTLVTVSS
VL: QAVLTQPASLSASPGASASLTCTLRSGIYVGTYRIYWYQQKPGSPPQYLLRYKSDSDKQQGSGVPSRFSGSKDVSANAGILLISGLQSEDEADYYCMTWHSSAVVFGGGTKLTVL

- binding [1]: binds
B20: clonotype128 (Table 6, anti-CD131) (antibody, V domains shown)
VH: EVQLVESGGGLIQPGGSLRLSCAASGFTVSSNYMSWVRQAPGKGLEWVSVIYSGGSTYYADSVKGRFTISRDNSKNTLYLQMNSLRAEDTAVYYCARSFDAFDIWGQGTMVTVSS
VL: QSALTQPASVSGSPGQSITISCTGTSSDVGGYNYVSWYQQHPGKAPKLMIYDVSKRPSGVSNRFSGSKSGNTASLTISGLQAEDEADYYCCSYAGSSTFVVFGGGTKLTVL

- binding [1]: binds
B22: clonotype158 (Table 6, anti-CD131) (antibody, V domains shown)
VH: EVQLVESGGGVVRPGGSLRLSCAASGFTFDDYGMSWVRQAPGKGLEWVSGINWNGGSTGYADSVKGRFTISRDNAKNSLYLQMNSLRAEDTALYYCAREGGGWVFDYWGQGTLVTVSS
VL: SSELTQDPAVSVALGQTVRITCQGDSLRSYYASWYQQKPGQAPVLVIYGKNNRPSGIPDRFSGSSSGNTASLTITGAQAEDEADYYCNSRDSSGNHWVFGGGTKLTVL

- binding [1]: binds
B23: clonotype140 (Table 6, anti-CD131) (antibody, V domains shown)
VH: QVQLVESGGGVVQPGRSLRLSCAASGFPFSNSGMHWVRQAPGKGLEWVTIISYDGNSKYYADSVKGRFTISRDNSKNTLYLQMNSLRTEDTAVYYCARGELGDFDYWGRGTLVTVSS
VL: B22 VL with W97L

The remaining lines, values behind:

B4: clonotype15 (Table 6, anti-CD131) (antibody, V domains shown)
VH: EVQLVESGGGLVQPGGSLRLSCAASGFTFSSYSMNWVRQAPGKGLEWVSYISSSSSTIYYADSVKGRFTISRDNAKNSLYLQMNSLRDEDTAVYYCARDGWDYWGQGTLVTVSS
VL: SYELTQPSSVSVSPGQTARITCSGDVLAKKYARWFQQKPGQAPVLVIYKDSERPSGIPERFSGSSSGTTVTLTISGAQVEDEADYYCYSAADNNRVFGGGTKLTVL
- binding [1]: binds

B5: clonotype8 (Table 6, anti-CD131) (antibody, V domains shown)
VH: QLQLQESGPGLVKPSETLSLTCTVSGGSISSSSYYWGWIRQPPGKGLEWIGSIYYSGSTYYNPSLKSRVTISVDTSKNQFSLKLSSVTAADTAVYYCASLTGDRFDYWGQGTLVTVSS
VL: B7 VL with R99V
- binding [1]: binds

B6: anti-CD131 antibody clonotype251 (Table 6) (antibody, V domains shown)
VH: QVQLQQWGAGLLKPSETLSLTCAVYGGSFSGHYWNWIRQPPGKGLEWIGEINHSGFTNYNPSLKSRVTISVDTPKNQFSLNLSSVTAADTAVYYCAREGLTGHVFDIWGQGTMVTVSS
VL: B7 VL with G31V, G43T, S97I, R99W
- binding [2]: binds

B8: anti-CD131 antibody clonotype252 (Table 6) (antibody, V domains shown)
VH: QVQVQQSGPGLVKPSQTLSLTCAISGDSVSSNSAAWNWIRQSPSRGLEWLGRTYYRSKWYNDFAVSVKSRITINPDTSKNQFSLQLNSVTPEDTAVYYCARGGGSGSYDWFDPWGQGTLVTVSS
VL: B7 VL with R99W
- binding [2]: binds

B13: clonotype25 (Table 6, anti-CD131) (antibody, V domains shown)
VH: QVQLVQSGAEVKKPGASVKVSCKASGYTFTSYGISWVRQAPGQGLEWMGWISAYNGNTNYAQKLQGRVTMTTDTSTSTAYMELRSLRSDDTAVYYCARENSGSYYWFDPWGQGTLVTVSS
VL: B14 VL with I54S, A92S, Q106K
- binding [1]: binds

B15: clonotype45 (Table 6, anti-CD131) (antibody, V domains shown)
VH: QVQLQQWGAGLLKPSETLSLTCAVYGGSFSGYYWSWIRQPPGKGLEWIGEINHSGSTNYNPSLKSRVTISVDTSKNQFSLKLSSVTAADTAVYYCARTSLAAADFDYWGQGTLVTVSS
VL: B14 VL with I54S, A92S, V99Y, G103T, Q106K, L107V
- binding [1]: binds

B16: clonotype16 (Table 6, anti-CD131) (antibody, V domains shown)
VH: EVQLVESGGGLVQPGGSLKLSCAASGFTFSSSDMHWVRQTTGKGLEWVSAIYTTGDTYYPGSVKGRFTISRENAKNSLYLQMNSLRAGDTAVYYCARGYSGSYYGDFDYWGQGTLVTVSS
VL: SYELTQPPSVSVSPGQTARITCSGDALPKKYAYWYQQKSGQAPVLVIYEDSKRPSGIPERFSGSSSGTMATLTISGAQVEDEADYYCYSTDSSGNRVFGGGTKLTVL
- binding [1]: binds

B18: clonotype52 (Table 6, anti-CD131) (antibody, V domains shown)
VH: EVQLVESGGGLVKPGGSLRLSCIASGFTFSTYSMNWVRQAPGKGLEWVSSISGSSSYIYYSDSVKGRFTISRDNAKNSLYLQLNSLRAEDTAVYYCASHWGHFDYWGRGTLVTVSS
VL: SYELTQPLSVSVALGQTARITCGGNNIGSKNVHWYQQKPGQAPVLVIYRDSNRPSGIPERFSGSNSGNTATLTISRAQAGDEADYYCQVWDSSTVVFGGGTKLTVL
- binding [1]: binds

B19: clonotype14 (Table 6, anti-CD131) (antibody, V domains shown)
VH: EVQLVESGGGVVRPGGSLRLSCAASGFTFDDYGMSWVRQAPGKGLEWVSGINWNGGSTGYADSVKGRFTISRDNAKNSLYLQMNSLRAEDTALYYCARERLTIFGVVNYYMDVWGKGTTVTVSS
VL: QSVLTQPPSVSGAPGQRVTISCTGSSSNIGAGYDVHWYQQLPGTAPKLLIYGNSNRPSGVPDRFSGSKSGTSASLAITGLQAEDEADYYCQSYDSSLSGWVFGGGTKLTVL
- binding [1]: binds

B21: clonotype36 (Table 6, anti-CD131) (antibody, V domains shown)
VH: QVQLQQWGAGLLKPSETLSLTCAVYGGSFSGYYWSWIRQPPGKGLEWIGEINHSGSTNYNPSLKSRVTISVDTSKNQFSLKLSSVTAADTAVYYCAREGLLVGATLDAFDIWGQGTMVTVSS
VL: B22 VL with W97L, G101T, L105V
- binding [1]: binds
